The source of these data is publication PMC12146848, “Deciphering meiotic chromatin organization by SYCP3”.

The target in this data set is T1, SYCP3 (Mus musculus) (UniProt P70281).
T1 sequence: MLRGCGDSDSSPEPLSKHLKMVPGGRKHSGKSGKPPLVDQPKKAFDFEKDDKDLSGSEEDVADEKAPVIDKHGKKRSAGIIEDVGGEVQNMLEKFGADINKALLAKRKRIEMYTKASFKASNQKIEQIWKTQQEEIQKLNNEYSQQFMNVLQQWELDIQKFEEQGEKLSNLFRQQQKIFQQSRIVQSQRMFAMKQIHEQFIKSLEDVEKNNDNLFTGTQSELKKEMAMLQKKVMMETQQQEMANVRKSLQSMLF
The data set can be described thus: EMSA. To be noted: Beyotime GS008 Gel-Shift binding buffer (composition and pH not given), 15 ul, 1 h at room temperature, 4% polyacrylamide gel, recombinant protein, protein details: C-terminal 6xHis, label: 3' biotin-dUTP added by TdT on both strands.

The comparison behind a weaker result is the experiment's own reference, which may not be listed here. Tags and fusion partners may be left off the protein sequences shown. Construct, isoform or probe ends are uncertain for at least one entry. At least one verdict was read from the data and is not stated in words by the source.

In the case of “ACAGTCCTGGTGATTGAACTCCGGCCCTGGGCATGCCAGGCGAGCACTCCACTCTTTGAG (double strand) [Probe-5mC]”, where the note is “significantly weakened vs unmethylated probe, all cytosines 5-methyl-dC on both strands”, the binding result is on record as “binds more weakly”.

Turning to “ACAGTCCTGGTGATTGAACTCCGGCCCTGGGCATGCCAGGCGAGCACTCCACTCTTTGAG (double strand) [WT Probe]”, under “with 1,6-hexanediol, modest reduction”, the binding result was “binds more weakly”. Take “CGAACCAATCGACGAAAACAAAACTCAAATCACAACAATGAGACTTCTCCAAAGAAATCT (double strand) [Mut probe']”: for the setting “stronger than WT Probe'”, the binding result is reported as “binds”. Consider “TAGGTTGGCTAGTAGGGGTGGGGTCTGGGCTGTGGTGGCAGAGTCCTCTTGGGAGGGCTC (double strand) [WT Probe']”, for which the binding result is “binds”.
